Our source for the binding values is patent CN115677859A.

No constants are given. Whether binding was seen depends on the method and setting. Some results given as binding are weak or reduced against the parent protein; the word gives no strength.

In test [1] the target is 猴4-1BB胞外段 (monkey 4-1BB extracellular domain) (monkey (猴)). Briefly: ELISA, monkey 4-1BB ECD coated, anti-human HRP.
Test [2] has as its target 猴PD-L1胞外段 (monkey PD-L1 extracellular domain) (monkey (猴)). Kind of test: ELISA, monkey PD-L1 ECD coated, anti-human HRP.

B1: 亲本抗体Anti-4-1BB (中国专利申请CN 201911105611.1中的抗人4-1BB单克隆抗体Hanke10F4) (antibody, V domains shown)
VH: QVQLQESGPGLVKPSETLSLTCTVSGSSLTSYGVHWVRQPPGKGLEGLGVIWPGGSTNYNSALMSRVTISKDNSKSQVSLKMSSLTAADTAVYYCARVTGTWYFDVWGQGTTVTVSS
VL: DIQMTQSPSSLSASLGDRVTISCSASQGISNYLNWYQQKPDGTVKLLIYYTSTLHSGVPSRFSGSGSGTDYTLTISSLQPEDIATYYCQQYSKLPWTFGGGTKLEIK
As to B1, the binding entry in test [1] is listed as “binds”.

B2: 亲本抗体Anti-PD-L1 (中国专利申请CN 201910174374.8的抗人PD-L1单克隆抗体, 安科生物) (antibody, V domains shown)
VH: DVQLVESGGGLVQPGGSLRLSCTVSGIDLSSYDMTWVRQAPGKGLEYIGYISYVSRTYYADSVKGRFTISKDTSKNTVYLQMNSLRAEDTAVYYCARDRPDGAATNLWGQGTLVTVSS
VL: DIQMTQSPSTLSASVGDRVTITCQSSQNVYSNNRLSWYQQKPGKAPKLLIYWTSFLASGVPSRFSGSGSGTEFTLTISSLQPDDFATYYCAGGYSGNLYTFGQGTKLEIKR
In the case of B2, the binding entry in test [2] is on record as “binds”.
